Screening data, single-dose tests

The filed quantity is “Percent Effect” (%).
How 0% and 100% were set is not recorded. Most values in the screen are low, and negative values occur.
Compounds were drawn at random from those tested, without regard to their results.
Two or more numbers in one place are separate tests of the same structure; such repeats can differ widely.

Mtb glucose medium: 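Whole-cell growth test on Mycobacterium tuberculosis, read after 3 days in glucose-containing 7H9 medium; the read-out is not stated. Concentration: 50 µM. Direction is inferred from retests: higher values go with more growth inhibition. Of about 69,000 compounds tested this way, about 760 (1.1%) reached 50% or more in at least one test.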
Mtb cholesterol medium: 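Growth of Mycobacterium tuberculosis over 4 days (cholesterol / DPPC medium with tyloxapol); the read-out is not stated. Concentration: 50 µM. Direction is inferred from retests: higher values go with more growth inhibition. Of about 69,000 compounds tested this way, about 370 (0.54%) reached 50% or more in at least one test.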

COC(=O)CN1CC(c2nc(Cc3ccccc3)no2)C1.O=C(O)C(=O)O read Mtb glucose medium: 4.436% and 3.495%; Mtb cholesterol medium: 2.682%.
CC(C)(C)C(=O)NCC(=O)Nc1cccnc1 read Mtb glucose medium: -11.22% and 1.277%; Mtb cholesterol medium: 16.95%.
CS(=O)(=O)N1CCCCCC1c1cc(-c2ccc(F)cc2)no1 (stereo not given) read Mtb glucose medium: -0.01153%; Mtb cholesterol medium: -9.435% and 6.923%.
CC[C@H]1CN(C(=O)c2cccnc2)CC[C@H]1CC(=O)NC1CC1 read Mtb glucose medium: -0.2343% and 3.061%; Mtb cholesterol medium: 12.63%.
Cc1cc(OCC(=O)N2CCCC(c3noc(C(C)C)n3)C2)no1 (stereo not given) read Mtb glucose medium: -1.117%; Mtb cholesterol medium: 4.333%.
Cn1c(CCN2CCN(c3ccc(O)cc3)CC2)nc2ccccc21 read Mtb glucose medium: -14.75%; Mtb cholesterol medium: -31.06%.
O=C(C1CCOCC1)N1CCc2onc(COc3cccnc3)c2C1.O=C(O)C(F)(F)F read Mtb glucose medium: -4.354%; Mtb cholesterol medium: 6.483% and -10.06%.
CNC(=O)CCN1CCCC1c1ccccc1Br (stereo not given) read Mtb glucose medium: -11.13%; Mtb cholesterol medium: -17.6%.
CN(C)[C@H]1CCCCN(C(=O)COCc2nc3cc(F)ccc3[nH]2)C1 read Mtb glucose medium: 5.491%; Mtb cholesterol medium: -3.141%.
CN(C)C(=O)Cn1c2c(ccc1=O)CC(NCc1ccoc1)CC2.O=C(O)C(F)(F)F (stereo not given) read Mtb glucose medium: -16.92% and -6.998%; Mtb cholesterol medium: 13.28%.
O=C(COc1ccccc1Br)N1CCOc2ccncc21 read Mtb glucose medium: 41.77%; Mtb cholesterol medium: 7.68% and -5.831%.
CC(C)c1cc(NC2CCCN(C(=O)c3cccs3)C2)ncn1 (stereo not given) read Mtb glucose medium: -1.99%; Mtb cholesterol medium: -3.778%.
Cc1ncccc1CNC(CCO)C1CCCCC1 (stereo not given) read Mtb glucose medium: -1.544% and 0.498%; Mtb cholesterol medium: -8.367%.
O=C(NCC1CC[C@@]2(CNCCOC2)O1)c1cccnc1 (stereo not given in full) read Mtb glucose medium: -1.747% and -21.08%; Mtb cholesterol medium: 14.73%.
Cc1ccc(NC2CCCN(CCCc3ccccc3)C2)nn1 (stereo not given) read Mtb glucose medium: -0.4089%; Mtb cholesterol medium: -21.92% and -4.598%.
CN(C)S(=O)(=O)N1CCOCC1CC(=O)NCCOc1ccccc1 (stereo not given) read Mtb glucose medium: -1.094%; Mtb cholesterol medium: 3.638%.
Cc1cc(C)n(-c2cncc(NCCNC(=O)C(C)(C)C)n2)n1 read Mtb glucose medium: -7.502%; Mtb cholesterol medium: -3.617%.
CCOc1ccccc1CNC(=O)c1cnn(CC)c1C(F)(F)F read Mtb glucose medium: -16.96%; Mtb cholesterol medium: -8.314%.
O=C(O)C(F)(F)F.O=C(c1ccncc1F)N1CCc2onc(COc3cccnc3)c2C1 read Mtb glucose medium: -23.22%; Mtb cholesterol medium: 0.3901% and 8.08%.
[H][C@]12CN(Cc3ncccn3)CC[C@@]1(O)CCN(C(=O)C1CCC1)C2 read Mtb glucose medium: 10.96%; Mtb cholesterol medium: -2.372%.
Cn1ncc(N2CCOC(CCNC(=O)NC(C)(C)C)C2)cc1=O (stereo not given) read Mtb glucose medium: -21.12%; Mtb cholesterol medium: -11.89% and -36.55%.
Cc1nc(Nc2ncc(C)s2)cc(C2CCCN2S(C)(=O)=O)n1 (stereo not given) read Mtb glucose medium: 17.47%; Mtb cholesterol medium: 11.96%.
Cc1cc(CN2CCN(c3ccc4nncn4n3)C(C)C2)no1 (stereo not given) read Mtb glucose medium: 17.57%; Mtb cholesterol medium: -9.857%.
COCc1cc(N2CCN(c3ccc(Cl)cn3)CC2)n2nccc2n1 read Mtb glucose medium: 12.05%; Mtb cholesterol medium: -1.523%.
CCc1nc(C)sc1CN1CC[C@@](O)(CCOC)[C@H](C)C1 read Mtb glucose medium: -7.795%; Mtb cholesterol medium: -12.68%.
CN1CCC(CNC(=O)CCSc2ccc3c(c2)OCCO3)C1 (stereo not given) read Mtb glucose medium: 16.2%; Mtb cholesterol medium: 24.86%.
CCC1CN(C(=O)c2cccc(OCc3cscn3)c2)CCO1 (stereo not given) read Mtb glucose medium: 7.492%; Mtb cholesterol medium: -0.2047%.
COC(=O)N1CCc2ccc(NC(=O)c3cn(C)nn3)cc2C1 read Mtb glucose medium: 27.29%; Mtb cholesterol medium: 0.05274%.
CC(=O)N1CCC(NC(=O)NCCCc2cn[nH]c2C)CC1 read Mtb glucose medium: -25.76% and -3.387%; Mtb cholesterol medium: -11.76%.
CC(=O)N1CC(Cc2nccc3ccn(C)c23)C1 read Mtb glucose medium: -10.02%; Mtb cholesterol medium: -13.7%.
CS(=O)(=O)N1CCCC(Cc2cnc(Br)cn2)C1 (stereo not given) read Mtb glucose medium: -16.79%; Mtb cholesterol medium: -33.5%.
Cn1ncc2c1NC(=O)CC2c1ccc(O)cc1 (stereo not given) read Mtb glucose medium: -37.52%; Mtb cholesterol medium: -22.43%.
CCOCCC(=O)NC(c1noc(C)n1)c1ccccc1F (stereo not given) read Mtb glucose medium: 3.424% and -5.833%; Mtb cholesterol medium: 2.577%.
CCc1sc(C(=O)NC2CC2)cc1C read Mtb glucose medium: -7.821%; Mtb cholesterol medium: -17.79% and 6.637%.
CC(=O)C(Cc1ccccc1)NC(=O)CSc1nccn1C1CC1 (stereo not given) read Mtb glucose medium: 10.84%; Mtb cholesterol medium: 13.56%.
CCCc1c(C(=O)N2CCN(c3cnccn3)CC2)cnn1C read Mtb glucose medium: -5.896% and -14.61%; Mtb cholesterol medium: 2.115%.
Fc1ccc(-c2nc(CN3CCn4c(nnc4C4CC4)C3)co2)cc1 read Mtb glucose medium: 18%; Mtb cholesterol medium: 5.344%.

The first 3 entries again:

Compound	Mtb glucose medium	Mtb cholesterol medium
COC(=O)CN1CC(c2nc(Cc3ccccc3)no2)C1.O=C(O)C(=O)O	4.436 and 3.495	2.682
CC(C)(C)C(=O)NCC(=O)Nc1cccnc1	-11.22 and 1.277	16.95
CS(=O)(=O)N1CCCCCC1c1cc(-c2ccc(F)cc2)no1 (stereo not given)	-0.01153	-9.435 and 6.923

Measurements from “University of Dundee, Small-Polar-MMV Screening Library” (2021), ChEMBL document CHEMBL3988442.